# Data: article doi:10.1101/2021.03.12.434960
# By UniProt entry, the sequences of proteins in these tests, tags left out.
# UniProt Q12840: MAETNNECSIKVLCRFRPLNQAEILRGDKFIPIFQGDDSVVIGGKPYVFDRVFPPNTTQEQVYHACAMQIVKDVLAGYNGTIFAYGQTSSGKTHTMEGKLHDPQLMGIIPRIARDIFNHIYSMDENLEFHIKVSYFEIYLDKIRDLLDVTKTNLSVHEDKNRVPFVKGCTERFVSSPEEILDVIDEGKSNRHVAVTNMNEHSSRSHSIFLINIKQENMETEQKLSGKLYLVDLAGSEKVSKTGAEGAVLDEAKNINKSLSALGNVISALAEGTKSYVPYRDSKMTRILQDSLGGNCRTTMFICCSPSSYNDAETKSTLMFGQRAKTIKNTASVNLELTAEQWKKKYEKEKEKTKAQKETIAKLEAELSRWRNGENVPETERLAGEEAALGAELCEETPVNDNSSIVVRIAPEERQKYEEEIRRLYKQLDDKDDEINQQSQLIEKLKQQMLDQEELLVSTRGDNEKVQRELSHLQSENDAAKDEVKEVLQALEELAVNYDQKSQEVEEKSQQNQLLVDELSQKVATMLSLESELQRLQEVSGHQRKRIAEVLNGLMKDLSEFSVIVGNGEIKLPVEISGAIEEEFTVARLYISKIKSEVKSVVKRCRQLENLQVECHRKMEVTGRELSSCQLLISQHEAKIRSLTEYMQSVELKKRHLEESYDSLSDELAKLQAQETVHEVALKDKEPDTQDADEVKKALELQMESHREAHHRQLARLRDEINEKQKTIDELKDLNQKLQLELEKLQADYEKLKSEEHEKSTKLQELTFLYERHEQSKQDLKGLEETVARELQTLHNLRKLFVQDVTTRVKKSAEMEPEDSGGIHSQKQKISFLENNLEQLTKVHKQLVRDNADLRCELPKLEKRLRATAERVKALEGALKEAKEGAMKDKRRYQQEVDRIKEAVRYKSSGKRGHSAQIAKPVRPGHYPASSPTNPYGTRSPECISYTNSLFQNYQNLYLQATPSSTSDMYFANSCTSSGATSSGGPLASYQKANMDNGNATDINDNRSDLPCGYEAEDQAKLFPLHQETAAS
# UniProt Q07866: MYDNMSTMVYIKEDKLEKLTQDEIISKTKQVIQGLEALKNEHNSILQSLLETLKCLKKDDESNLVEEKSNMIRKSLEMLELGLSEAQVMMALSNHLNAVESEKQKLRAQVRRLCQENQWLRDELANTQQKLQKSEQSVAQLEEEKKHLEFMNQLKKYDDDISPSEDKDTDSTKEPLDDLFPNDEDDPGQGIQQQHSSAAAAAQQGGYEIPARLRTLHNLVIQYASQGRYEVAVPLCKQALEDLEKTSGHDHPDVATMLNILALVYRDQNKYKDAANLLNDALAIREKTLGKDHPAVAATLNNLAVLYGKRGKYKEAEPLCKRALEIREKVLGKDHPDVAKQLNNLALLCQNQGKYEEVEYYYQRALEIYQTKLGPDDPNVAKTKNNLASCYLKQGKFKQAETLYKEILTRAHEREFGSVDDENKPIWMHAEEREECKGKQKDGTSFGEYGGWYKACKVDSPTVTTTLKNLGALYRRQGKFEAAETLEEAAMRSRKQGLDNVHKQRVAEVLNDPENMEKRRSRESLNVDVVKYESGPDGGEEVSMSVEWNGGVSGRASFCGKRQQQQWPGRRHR
# Results are given in words; binding and its absence hold for the method and conditions named. Some entries that bind do so weakly or less than the wild type.
# Target: full-length human KIF5A, C-terminal mScarlet-StrepII (human) (UniProt Q12840)
# Test: SEC-MALS
substance,measurement,value
human KLC1 with N-terminal 6xHis-FLAG (co-expressed with KIF5) (from UniProt Q07866 1-573),binding,binds
